PubChem BioAssay AID743454 | Peter MacCallum Cancer Centre – 2014
This is an unselected part of about 18,000 reagents tested. Of all reagents, 450 (2.5%) are marked active. 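Single biological run; no consistent viability z cut-off exists, so the class columns, not z-scores, define the calls.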 Reagent sequences are not shown.

Aim: 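Knock-downs lowering viability or raising caspase 3/7 activity in vorinostat-treated resistant cells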 (primary screen)
Cell system: human HCT116-VR colon cancer cells, selected for vorinostat resistance
Reagent: siRNA pool against human genes, 40 nM siRNA pool
Duration: vorinostat for 24 h, read-out about 72 h after transfection
Treatment: vorinostat at 2.5 µM final
Measurement: 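Cell viability by CellTiter-Fluor and caspase 3/7 activity by luminescence, each scaled to mock wells per plate, duplicates averaged, then robust z-scored over all plates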
Direction: viability robust z-score: higher = more viable cells than screen typical; caspase robust z-score: higher = more caspase 3/7 activity than screen typical
Rule for the call: 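a knock-down is a hit when classed RV1 or RV2 for lowered viability, or CA1 or CA2 for caspase activation; those lethal without drug were dropped; hits were retested singly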

target gene	viability hit class	caspase hit class	viability robust z-score	caspase robust z-score	call
REX1BD (required for excision 1-B domain containing)	no change	no change	-0.38	-0.48	inactive
SP140 (SP140 nuclear body protein)	no change	no change	2.06	0.67	inactive
TPGS1 (tubulin polyglutamylase complex subunit 1)	no change	no change	-1.71	1.27	inactive
ARHGEF10L (Rho guanine nucleotide exchange factor 10 like)	no change	no change	-0.34	-0.8	inactive
KIFC2 (kinesin family member C2)	no change	no change	0.56	2.05	inactive
SIN3A (SIN3 transcription regulator family member A)	no change	CA2 (caspase activation)	-1.32	6.65	active
PPOX (protoporphyrinogen oxidase)	no change	no change	-0.95	1.75	inactive
WNK4 (WNK lysine deficient protein kinase 4)	no change	no change	-0.02	4.03	inactive
AADACL4 (arylacetamide deacetylase like 4)	no change	no change	1.33	-0.31	inactive
PDZD8 (PDZ domain containing 8)	no change	no change	0.32	-0.89	inactive
NPFFR1 (neuropeptide FF receptor 1)	no change	no change	0.61	1.14	inactive
NHERF1 (NHERF family PDZ scaffold protein 1)	no change	no change	-0.1	1.04	inactive
FAM187B (family with sequence similarity 187 member B)	no change	no change	0.82	-0.5	inactive
DEFB130A (defensin beta 130A)	no change	no change	-0.38	-0.07	inactive
FOXJ1 (forkhead box J1)	no change	no change	2.02	-0.14	inactive
BTD (biotinidase)	no change	no change	1.83	-0.28	inactive
PTGR1 (prostaglandin reductase 1)	no change	no change	-1.26	-0.14	inactive
ZNF678 (zinc finger protein 678)	no change	no change	-0.6	5.03	inactive
RTN3 (reticulon 3)	no change	no change	0.59	-0.42	inactive
MXD3 (MAX dimerization protein 3)	no change	no change	0.69	-0.62	inactive
MANSC1 (MANSC domain containing 1)	no change	no change	0.43	2.62	inactive
DEFB132 (defensin beta 132)	no change	no change	-0.94	-1.69	inactive
TUB (TUB bipartite transcription factor)	no change	no change	-0.11	0.99	inactive
STX8 (syntaxin 8)	no change	no change	0.19	-0.81	inactive
TBC1D10C (TBC1 domain family member 10C)	no change	no change	-0.27	-1.24	inactive
IAPP (islet amyloid polypeptide)	no change	no change	0.95	-0.7	inactive
MKS1 (MKS transition zone complex subunit 1)	no change	no change	-1.49	0.12	inactive
KIR3DP1	no change	no change	-0.74	-0.37	inactive
SMIM3 (small integral membrane protein 3)	no change	no change	1.29	-0.28	inactive
CNNM4	no change	no change	-1.01	1.54	inactive
MAGEA9 (MAGE family member A9)	no change	no change	0.42	0.04	inactive
CHST3 (carbohydrate sulfotransferase 3)	no change	no change	-1.65	-0.54	inactive
LDB2 (LIM domain binding 2)	no change	no change	-0.15	-1.12	inactive
KLHL36 (kelch like family member 36)	no change	no change	0.84	-1.08	inactive
PGRMC1 (progesterone receptor membrane component 1)	no change	no change	0.01	-0.07	inactive
LCK (LCK proto-oncogene, Src family tyrosine kinase)	no change	no change	-1.3	0.64	inactive
NCEH1 (neutral cholesterol ester hydrolase 1)	no change	no change	0.68	-0.43	inactive
SLC9A1	no change	no change	1.18	0.43	inactive
NOVA2 (NOVA alternative splicing regulator 2)	no change	no change	-0.14	1.08	inactive
FAM81A (family with sequence similarity 81 member A)	no change	no change	0.18	1.38	inactive
SNTB1 (syntrophin beta 1)	no change	no change	-0.48	-0.84	inactive
YJU2B (YJU2 splicing factor homolog B)	no change	CA1 (caspase activation)	-0.26	5.21	active
DLX2 (distal-less homeobox 2)	no change	no change	-1.77	-0.33	inactive
NR2C2 (nuclear receptor subfamily 2 group C member 2)	no change	no change	-0.33	-0.66	inactive
ZNF793 (zinc finger protein 793)	no change	no change	0.48	0.08	inactive
PARP14 (poly(ADP-ribose) polymerase family member 14)	no change	no change	0.84	-0.83	inactive
SPG7 (SPG7 matrix AAA peptidase subunit, paraplegin)	no change	no change	-1.37	0.72	inactive
DNASE1L3 (deoxyribonuclease 1L3)	no change	no change	0.02	2.2	inactive
NCAM1 (neural cell adhesion molecule 1)	no change	no change	-0.46	0.23	inactive
ZNF718 (zinc finger protein 718)	no change	no change	1.36	0.42	inactive
INAVA (innate immunity activator)	no change	no change	-1.14	-0.8	inactive
YTHDF3 (YTH N6-methyladenosine RNA binding protein F3)	no change	no change	-0.13	0.48	inactive
FAM32A (family with sequence similarity 32 member A)	no change	no change	0.06	-0.42	inactive
KRT8 (keratin 8)	no change	no change	0.33	-0.45	inactive
BFSP1 (beaded filament structural protein 1)	no change	no change	1.41	0.1	inactive
FUT8 (fucosyltransferase 8)	no change	no change	0.13	3.55	inactive
COA3 (cytochrome c oxidase assembly factor 3)	no change	no change	0.28	0.14	inactive
SRP68 (signal recognition particle 68)	no change	no change	0.18	-0.22	inactive
MCF2 (MCF.2 cell line derived transforming sequence)	no change	no change	0.38	-0.78	inactive
TSPO2 (translocator protein 2)	no change	no change	-0.27	3.02	inactive
LGI2 (leucine rich repeat LGI family member 2)	no change	no change	0.02	-0.82	inactive
GNAL (G protein subunit alpha L)	no change	no change	-0.16	2.15	inactive
GRIP2 (glutamate receptor interacting protein 2)	no change	no change	-4.63	1.33	inactive
HNF1A (HNF1 homeobox A)	no change	no change	0.7	0.94	inactive
ITGA2B (integrin subunit alpha 2b)	no change	no change	-1.27	1.33	inactive
SORCS1 (sortilin related VPS10 domain containing receptor 1)	no change	no change	0.18	-1.22	inactive
CFB (complement factor B)	no change	no change	1.04	1.06	inactive
RNASEK (ribonuclease K)	no change	no change	0.13	-1.02	inactive
OR8D2 (olfactory receptor family 8 subfamily D member 2)	no change	no change	-0.72	-0.06	inactive
AZIN1 (antizyme inhibitor 1)	no change	no change	0.62	-0.19	inactive
PBX3 (PBX homeobox 3)	no change	no change	1.5	-0.44	inactive
HCAR2 (hydroxycarboxylic acid receptor 2)	no change	no change	-1.89	3.29	inactive
NGEF (neuronal guanine nucleotide exchange factor)	no change	no change	0.17	-0.64	inactive

4 neighbouring entries from above, quoted:
target gene	viability hit class	caspase hit class	viability robust z-score	caspase robust z-score	call
INAVA (innate immunity activator)	no change	no change	-1.14	-0.8	inactive
YTHDF3 (YTH N6-methyladenosine RNA binding protein F3)	no change	no change	-0.13	0.48	inactive
FAM32A (family with sequence similarity 32 member A)	no change	no change	0.06	-0.42	inactive
KRT8 (keratin 8)	no change	no change	0.33	-0.45	inactive
